Assay results reported in article PMC9728307 (Journal of Microbiology and Biotechnology, 2020).
pIC50: −log10 of the molar value.

Test system: SARS-CoV-2
Test: microbe, parasite or virus in culture
Format: cell-based
Conditions: compounds from secondary screening

Question: Which results are given for `CN1CC2c3ccccc3Oc3ccc(Cl)cc3C2C1` (centres unmarked) [Asenapine]?
Answer: Selectivity Index (SI) (CC50/IC50): >3.8; pIC50 (Severe acute respiratory syndrome coronavirus 2, Vero, 24 h, Vero cells, MOI 2, 24 h post-infection, 0.08–50 μM, read-out: IC50 antiviral activity): 4.88
